In the assay the target is GST-tagged Nipah virus V protein (NiV-V) (Nipah virus) (UniProt Q997F2). The experiment in a line: pull-down.

Protein sequences, listed by entry. Tags and fused reporters are not part of them.
UniProt Q997F2: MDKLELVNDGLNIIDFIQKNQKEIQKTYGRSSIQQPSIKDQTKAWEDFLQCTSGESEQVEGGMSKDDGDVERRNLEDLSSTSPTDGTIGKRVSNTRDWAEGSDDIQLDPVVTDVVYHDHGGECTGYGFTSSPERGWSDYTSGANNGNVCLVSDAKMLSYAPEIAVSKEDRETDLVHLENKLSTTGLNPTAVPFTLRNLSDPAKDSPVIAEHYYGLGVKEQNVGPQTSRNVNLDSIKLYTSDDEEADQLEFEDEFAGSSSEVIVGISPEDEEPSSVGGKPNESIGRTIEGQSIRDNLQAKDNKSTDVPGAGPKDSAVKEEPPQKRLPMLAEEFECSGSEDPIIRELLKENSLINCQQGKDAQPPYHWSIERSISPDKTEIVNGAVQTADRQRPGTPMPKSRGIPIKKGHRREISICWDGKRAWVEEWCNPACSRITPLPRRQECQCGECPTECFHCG
UniProt P42224: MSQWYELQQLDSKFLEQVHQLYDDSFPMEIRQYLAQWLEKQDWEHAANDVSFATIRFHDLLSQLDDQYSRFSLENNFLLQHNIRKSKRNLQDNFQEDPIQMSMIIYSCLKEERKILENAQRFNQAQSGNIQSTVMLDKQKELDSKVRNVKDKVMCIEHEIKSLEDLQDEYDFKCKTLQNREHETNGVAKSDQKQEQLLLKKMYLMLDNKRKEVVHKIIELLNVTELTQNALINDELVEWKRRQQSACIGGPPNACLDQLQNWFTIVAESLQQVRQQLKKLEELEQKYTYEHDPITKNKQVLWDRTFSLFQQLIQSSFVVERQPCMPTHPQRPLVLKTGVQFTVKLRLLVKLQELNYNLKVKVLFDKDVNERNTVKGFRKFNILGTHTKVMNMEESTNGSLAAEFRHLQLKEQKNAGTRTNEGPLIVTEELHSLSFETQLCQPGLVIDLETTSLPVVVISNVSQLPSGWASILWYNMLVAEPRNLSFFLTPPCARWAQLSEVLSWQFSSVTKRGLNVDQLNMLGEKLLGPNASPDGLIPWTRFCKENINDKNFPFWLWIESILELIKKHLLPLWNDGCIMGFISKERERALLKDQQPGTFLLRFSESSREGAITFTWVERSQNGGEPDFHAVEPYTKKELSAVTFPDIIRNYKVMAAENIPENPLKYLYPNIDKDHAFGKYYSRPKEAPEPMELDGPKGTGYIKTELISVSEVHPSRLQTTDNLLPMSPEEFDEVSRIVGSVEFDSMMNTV

Results are given in words; binding and its absence hold for the method and conditions named. In cells and extracts the contact can be indirect. Some binding calls cover weakened binding; strength is not graded here.

“3xFLAG-tagged human STAT1 (from UniProt P42224 1-750)”: the binding entry is listed as “binds”.

These data come from paper PMC3544715.
